Assay results reported in paper PMC3754922.
Results are given in words; binding and its absence hold for the method and conditions named.

Sequences of proteins named here, by UniProt entry; tags and fusion partners are left off. A change or cut given only in a name is not applied to a line headed by its entry. Residues count along the entry.
UniProt P02769, residues 25-607: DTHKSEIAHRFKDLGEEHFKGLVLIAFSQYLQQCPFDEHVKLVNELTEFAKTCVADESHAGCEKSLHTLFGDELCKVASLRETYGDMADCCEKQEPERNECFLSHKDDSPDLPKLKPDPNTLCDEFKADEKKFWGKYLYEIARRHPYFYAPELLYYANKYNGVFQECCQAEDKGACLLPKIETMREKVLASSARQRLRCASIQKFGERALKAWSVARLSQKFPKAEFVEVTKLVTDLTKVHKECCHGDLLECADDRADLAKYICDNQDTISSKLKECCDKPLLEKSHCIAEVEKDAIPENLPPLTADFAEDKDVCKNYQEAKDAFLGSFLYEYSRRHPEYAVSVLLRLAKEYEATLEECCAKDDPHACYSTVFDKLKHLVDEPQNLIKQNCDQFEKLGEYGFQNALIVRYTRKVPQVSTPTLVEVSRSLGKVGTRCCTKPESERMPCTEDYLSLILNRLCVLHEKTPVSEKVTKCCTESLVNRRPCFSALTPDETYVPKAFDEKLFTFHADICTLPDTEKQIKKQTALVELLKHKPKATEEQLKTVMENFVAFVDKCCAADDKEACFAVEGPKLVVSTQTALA
UniProt Q9NNX6, residues 64-404: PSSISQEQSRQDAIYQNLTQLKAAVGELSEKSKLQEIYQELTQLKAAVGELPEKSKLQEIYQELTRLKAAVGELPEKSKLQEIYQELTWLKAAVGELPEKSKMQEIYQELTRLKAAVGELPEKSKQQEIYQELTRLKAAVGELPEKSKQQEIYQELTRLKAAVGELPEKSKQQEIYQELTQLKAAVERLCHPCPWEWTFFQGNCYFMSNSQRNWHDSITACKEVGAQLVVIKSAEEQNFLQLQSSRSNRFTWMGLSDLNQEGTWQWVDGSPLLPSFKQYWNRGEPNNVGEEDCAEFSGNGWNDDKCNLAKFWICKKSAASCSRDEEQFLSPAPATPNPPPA

Target: bovine serum albumin (bovine) (UniProt P02769)
Assay: ELISA; Nunc MaxiSorp wells, blocked with 1% BSA in TMS; DC-SIGN-Fc 3 μg/mL in TMS (20 mM Tris-HCl pH 8.0, 150 mM NaCl, 1 mM CaCl2, 2 mM MgCl2) with 1% BSA, 1 h at 37°C; detected with goat anti-human HRP, OD at 450 nm

- binding: no binding (tested: 3 μg/mL DC-SIGN-Fc)
Substance: recombinant chimera protein DC-SIGN-Fc (from UniProt Q9NNX6 64-404) (Fc fusion)
